Data from paper PMC11828871, “Structural basis of anticancer drug recognition and amino acid transport by LAT1” (Nature Communications, 2025).
Results are given in words; binding and its absence hold for the method and conditions named. Some results given as binding are weak or reduced against the parent protein; the word gives no strength.

The chains behind the UniProt entries cited, without tags or fusion partners. Residues count along the entry.
UniProt P08195, residues 102-630: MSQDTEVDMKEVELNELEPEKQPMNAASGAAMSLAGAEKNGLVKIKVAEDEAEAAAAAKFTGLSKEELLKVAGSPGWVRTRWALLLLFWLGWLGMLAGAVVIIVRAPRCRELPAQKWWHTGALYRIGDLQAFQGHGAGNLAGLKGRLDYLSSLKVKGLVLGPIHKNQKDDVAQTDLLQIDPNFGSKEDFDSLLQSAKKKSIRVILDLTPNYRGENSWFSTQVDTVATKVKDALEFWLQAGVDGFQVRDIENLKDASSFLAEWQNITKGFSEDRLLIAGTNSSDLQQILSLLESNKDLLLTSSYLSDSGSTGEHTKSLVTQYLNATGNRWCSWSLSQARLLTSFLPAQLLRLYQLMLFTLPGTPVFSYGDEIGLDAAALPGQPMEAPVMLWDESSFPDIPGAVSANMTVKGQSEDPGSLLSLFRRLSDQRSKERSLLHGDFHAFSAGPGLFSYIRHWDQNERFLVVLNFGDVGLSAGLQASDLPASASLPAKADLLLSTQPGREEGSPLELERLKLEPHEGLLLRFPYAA
UniProt Q01650: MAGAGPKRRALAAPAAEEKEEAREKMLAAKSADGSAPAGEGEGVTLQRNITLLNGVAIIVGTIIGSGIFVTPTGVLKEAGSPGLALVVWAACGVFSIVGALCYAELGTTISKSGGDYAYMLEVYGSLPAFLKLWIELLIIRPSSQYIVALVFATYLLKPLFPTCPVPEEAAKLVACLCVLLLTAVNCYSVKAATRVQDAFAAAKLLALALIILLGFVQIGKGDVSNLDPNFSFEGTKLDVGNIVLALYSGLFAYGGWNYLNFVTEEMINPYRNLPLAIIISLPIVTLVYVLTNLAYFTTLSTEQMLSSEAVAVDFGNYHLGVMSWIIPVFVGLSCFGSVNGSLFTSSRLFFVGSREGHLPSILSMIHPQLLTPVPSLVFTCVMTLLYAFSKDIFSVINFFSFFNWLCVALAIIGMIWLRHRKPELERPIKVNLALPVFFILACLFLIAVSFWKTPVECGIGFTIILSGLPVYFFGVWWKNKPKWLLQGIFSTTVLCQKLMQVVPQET

Target: CD98hc (4F2hc; SLC3A2) (human) (UniProt P08195)
Experiment: cryo-EM structure; LAT1–CD98hc in lipid nanodiscs (POPC:POPG:cholesterol 2:2:1, MSP2N2) complexed with Fab170, gel filtration; SEC buffer 20 mM Tris-HCl pH 9.0, 150 mM NaCl; with JPH203, L-Phe, melphalan, BCH, T3 or no ligand; both purified

## L-type amino acid transporter 1 (LAT1; SLC7A5) (from UniProt Q01650 1-507)
  binding: binds
